In US20140171316A1, “ANTHRANILAMIDE COMPOUNDS AND THEIR USE AS PESTICIDES” (BASF SE, priority 2011, published 2014):
Some of these results come from one statement about several compounds together.

Legend:
Type in all cases: in vivo
Myzus persicae = assay: Green peach aphid (Myzus persicae) spray test on bell pepper plants; conditions: 2500 ppm; sprayed infested bell pepper plants; after 5 days
Source text: The active compounds were formulated in cyclohexanone as a 10,000 ppm solution supplied in tubes. The tubes were inserted into an automated electrostatic sprayer equipped with an atomizing nozzle and they served as stock solutions for which lower dilutions were made in 50% acetone:50% water (v/v). A nonionic surfactant (Kinetic®) was included in the solution at a volume of 0.01% (v/v).
Bell pepper plants at the first true-leaf stage were infested prior to treatment by placing heavily infested leaves from the main colony on top of the treatment plants. Aphids were allowed to transfer overnight to accomplish an infestation of 30-50 aphids per plant and the host leaves were removed. The infested plants were then sprayed by an automated electrostatic plant sprayer equipped with an atomizing spray nozzle. The plants were dried in the sprayer fume hood, removed, and then maintained in a growth room under fluorescent lighting in a 24-hr photoperiod at about 25° C. and about 20-40% relative humidity. Aphid mortality on the treated plants, relative to mortality on untreated control plants, was determined after 5 days.

Aphis craccivora = assay: Cowpea aphid (Aphis craccivora) spray test on potted cowpea plants; conditions: 500 ppm; sprayed cowpea plants; assessed after 72 hours
Experimental: The active compound was dissolved at the desired concentration in a mixture of 1:1 (vol:vol) distilled water:acetone. Surfactant (Alkamuls® EL 620) is added at a rate of 0.1% (vol/vol). The test solution was prepared at the day of use.
Potted cowpea plants were colonized with approximately 50-100 aphids of various stages by manually transferring a leaf tissue cut from infested plant 24 hours before application. Plants were sprayed after the pest population has been recorded. Treated plants were maintained on light carts at about 28° C. Percent mortality was assessed after 72 hours.

Anthonomus grandis = assay: Boll weevil (Anthonomus grandis) microtiter plate insect diet test; conditions: 2500 ppm; sprayed onto insect diet; 5 days
Experimental: For evaluating control of boll weevil (Anthonomus grandis) the test unit consisted of 24-well-microtiter plates containing an insect diet and 20-30 A. grandis eggs.
The compounds were formulated using a solution containing 75% v/v water and 25% v/v DMSO. Different concentrations of formulated compounds were sprayed onto the insect diet at 20 μl, using a custom built micro atomizer, at two replications.
After application, microtiter plates were incubated at about 23±1° C. and about 50±5% relative humidity for 5 days. Egg and larval mortality was then visually assessed.

Ceratitis capitata = assay: Mediterranean fruitfly (Ceratitis capitata) microtiter plate insect diet test; conditions: 2500 ppm; sprayed onto insect diet; 5 days
Experimental: For evaluating control of Mediterranean fruitfly (Ceratitis capitata) the test unit consisted of microtiter plates containing an insect diet and 50-80 C. capitata eggs.
The compounds were formulated using a solution containing 75% v/v water and 25% v/v DMSO. Different concentrations of formulated compounds were sprayed onto the insect diet at 5 μl, using a custom built micro atomizer, at two replications.
(§1) After application, microtiter plates were incubated at about 28±1° C. and about 80±5% relative humidity for 5 days. Egg and larval mortality was then visually assessed.

Heliothis virescens = assay: Tobacco budworm (Heliothis virescens) microtiter plate insect diet test; conditions: 2500 ppm; sprayed onto insect diet; 5 days
Experimental: For evaluating control of tobacco budworm (Heliothis virescens) the test unit consisted of 96-well-microtiter plates containing an insect diet and 15-25 H. virescens eggs.
The compounds were formulated using a solution containing 75% v/v water and 25% v/v DMSO. Different concentrations of formulated compounds were sprayed onto the insect diet at 10 μl, using a custom built micro atomizer, at two replications.
as §1

Megoura viciae = assay: Vetch aphid (Megoura viciae) broad bean leaf disk test; conditions: 2500 ppm; sprayed broad bean leaf disks, adult aphids; 5 days
Experimental: For evaluating control of vetch aphid (Megoura viciae) through contact or systemic means the test unit consisted of 24-well-microtiter plates containing broad bean leaf disks.
The compounds were formulated using a solution containing 75% v/v water and 25% v/v DMSO. Different concentrations of formulated compounds were sprayed onto the leaf disks at 2.5 μl, using a custom built micro atomizer, at two replications.
After application, the leaf disks were air-dried and 5-8 adult aphids placed on the leaf disks inside the microtiter plate wells. The aphids were then allowed to suck on the treated leaf disks and incubated at about 23±1° C. and about 50±5% relative humidity for 5 days. Aphid mortality and fecundity was then visually assessed.

Spodoptera eridania = assay: Southern armyworm (Spodoptera eridania) foliar spray test on lima bean plants; conditions: at less than 300 ppm; sprayed lima bean foliage, larvae; 4 days after treatment
Dichromothrips corbetti = assay: Orchid thrips (Dichromothrips corbetti) floral-immersion test; conditions: 500 ppm; dipped orchid flowers, adult thrips; 72 hours after treatment
Experimental: Dichromothrips corbetti adults used for bioassay were obtained from a colony maintained continuously under laboratory conditions. For testing purposes, the test compound was diluted in a 1:1 mixture of acetone:water (vol:vol), plus 0.01% vol/vol Alkamuls® EL 620 surfactant.
Thrips potency of each compound was evaluated by using a floral-immersion technique. Plastic petri dishes were used as test arenas. All petals of individual, intact orchid flowers were dipped into treatment solution and allowed to dry. Treated flowers were placed into individual petri dishes along with about 20 adult thrips. The petri dishes were then covered with lids. All test arenas were held under continuous light and a temperature of about 28° C. for duration of the assay. After 3 days, the numbers of live thrips were counted on each flower, and along inner walls of each petri dish. The percent mortality was recorded 72 hours after treatment.

CNC(=O)c1cc(C=NNC(N)=O)cc(C)c1NC(=O)c1cnn(CC(F)(F)F)c1-c1ncccc1Cl [Compound 1-3]
over 75%: mortality in comparison with untreated controls (Myzus persicae) | mortality in comparison with untreated controls (Aphis craccivora)

CCON=Cc1cc(C)c(NC(=O)c2cnn(CC(F)(F)F)c2-c2ncccc2Cl)c(C(=O)NC)c1 [Compound 1-4]
over 75%: mortality in comparison with untreated controls (egg and larval mortality) (Anthonomus grandis) | mortality in comparison with untreated controls (egg and larval mortality) (Ceratitis capitata) | mortality in comparison with untreated controls (Myzus persicae) | mortality in comparison with untreated controls (egg and larval mortality) (Heliothis virescens) | mortality in comparison with untreated controls (Megoura viciae) | mortality in comparison with untreated controls (Spodoptera eridania)

CNC(=O)c1cc(C=NOC(C)C)cc(C)c1NC(=O)c1cnn(CC(F)(F)F)c1-c1ncccc1Cl [Compound 1-5]
over 75%: mortality in comparison with untreated controls (egg and larval mortality) (Anthonomus grandis) | mortality in comparison with untreated controls (egg and larval mortality) (Ceratitis capitata) | mortality in comparison with untreated controls (Myzus persicae) | mortality in comparison with untreated controls (egg and larval mortality) (Heliothis virescens) | mortality in comparison with untreated controls (Dichromothrips corbetti) | mortality in comparison with untreated controls (Megoura viciae) | mortality in comparison with untreated controls (Spodoptera eridania) | mortality in comparison with untreated controls (Aphis craccivora)

Cc1cc(C=NOC(C)C)cc(C(=O)NC(C)C)c1NC(=O)c1cnn(CC(F)(F)F)c1-c1ncccc1Cl [Compound 1-6]
over 75%: mortality in comparison with untreated controls (egg and larval mortality) (Anthonomus grandis) | mortality in comparison with untreated controls (egg and larval mortality) (Ceratitis capitata) | mortality in comparison with untreated controls (Myzus persicae) | mortality in comparison with untreated controls (egg and larval mortality) (Heliothis virescens) | mortality in comparison with untreated controls (Dichromothrips corbetti) | mortality in comparison with untreated controls (Megoura viciae) | mortality in comparison with untreated controls (Aphis craccivora)

CCON=Cc1cc(Cl)c(NC(=O)c2cnn(CC(F)(F)F)c2-c2ncccc2Cl)c(C(=O)NC(C)C)c1 [Compound 1-7]
over 75%: mortality in comparison with untreated controls (egg and larval mortality) (Anthonomus grandis) | mortality in comparison with untreated controls (egg and larval mortality) (Ceratitis capitata) | mortality in comparison with untreated controls (Myzus persicae) | mortality in comparison with untreated controls (egg and larval mortality) (Heliothis virescens) | mortality in comparison with untreated controls (Spodoptera eridania) | mortality in comparison with untreated controls (Aphis craccivora)

CCON=Cc1cc(Cl)c(NC(=O)c2cnn(CC(F)(F)F)c2-c2ncccc2Cl)c(C(=O)NC)c1 [Compound 1-8]
over 75%: mortality in comparison with untreated controls (egg and larval mortality) (Ceratitis capitata) | mortality in comparison with untreated controls (Myzus persicae) | mortality in comparison with untreated controls (egg and larval mortality) (Heliothis virescens) | mortality in comparison with untreated controls (Megoura viciae) | mortality in comparison with untreated controls (Spodoptera eridania)
